Measured values published in patent US20240122983A1.
Results are given in words; binding and its absence hold for the method and conditions named. Some results given as binding are weak or reduced against the parent protein; the word gives no strength.

Amino acid sequences for entries named in this document (tags omitted). A change or cut given only in a name is not applied to a line headed by its entry. Residues count along the entry.
UniProt P41274, residues 104-309: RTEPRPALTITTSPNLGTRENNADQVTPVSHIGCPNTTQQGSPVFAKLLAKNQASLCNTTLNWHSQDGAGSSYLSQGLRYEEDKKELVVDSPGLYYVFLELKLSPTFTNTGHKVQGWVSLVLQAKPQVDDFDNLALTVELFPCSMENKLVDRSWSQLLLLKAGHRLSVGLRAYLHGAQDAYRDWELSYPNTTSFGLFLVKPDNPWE
UniProt P27548, residues 112-260: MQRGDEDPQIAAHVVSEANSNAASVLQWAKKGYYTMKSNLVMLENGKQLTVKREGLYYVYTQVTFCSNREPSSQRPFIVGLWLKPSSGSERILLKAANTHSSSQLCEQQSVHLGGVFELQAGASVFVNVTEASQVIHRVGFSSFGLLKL
UniProt P43488, residues 51-198: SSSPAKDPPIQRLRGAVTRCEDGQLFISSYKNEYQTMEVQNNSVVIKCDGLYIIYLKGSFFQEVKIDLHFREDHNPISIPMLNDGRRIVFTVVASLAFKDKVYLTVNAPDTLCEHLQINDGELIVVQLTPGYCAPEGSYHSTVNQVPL
UniProt P49772: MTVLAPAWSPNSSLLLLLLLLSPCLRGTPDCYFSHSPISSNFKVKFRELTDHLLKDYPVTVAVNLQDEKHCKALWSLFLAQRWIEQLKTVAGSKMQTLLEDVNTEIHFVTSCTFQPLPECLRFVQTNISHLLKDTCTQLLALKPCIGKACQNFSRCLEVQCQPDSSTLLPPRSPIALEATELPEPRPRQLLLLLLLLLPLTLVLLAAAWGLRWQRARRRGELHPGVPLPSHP

Experiments:
[1] = target: T1, recombinant mouse m4-1BB protein (mouse) (UniProt P20334); experiment: ELISA: plate-bound m41BB (3.3ug/ml), detection anti-m41BBL (1:1000) and anti-goat IgG (1:10,000)
T1 sequence (looked up): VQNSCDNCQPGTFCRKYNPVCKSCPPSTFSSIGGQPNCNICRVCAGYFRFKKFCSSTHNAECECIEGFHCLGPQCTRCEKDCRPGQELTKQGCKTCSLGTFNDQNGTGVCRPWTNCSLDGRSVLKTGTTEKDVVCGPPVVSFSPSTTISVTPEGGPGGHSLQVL

[2] = target: T2, recombinant mouse mCD40 protein (mouse) (UniProt P27512); experiment: ELISA: plate-bound mCD40 (5ug/ml), detection anti-mCD40L (1:1000) and anti-goat IgG (1:10,000)
T2 sequence (looked up): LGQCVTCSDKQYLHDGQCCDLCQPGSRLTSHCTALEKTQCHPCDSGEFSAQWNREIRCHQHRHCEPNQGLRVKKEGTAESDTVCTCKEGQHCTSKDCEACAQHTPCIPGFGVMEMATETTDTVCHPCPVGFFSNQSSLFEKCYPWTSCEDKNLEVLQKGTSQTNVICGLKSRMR

[3] = target: T3, recombinant mouse mOX40 protein (mouse) (UniProt P47741); experiment: ELISA: plate-bound mOX40 (5ug/ml), detection anti-mOX40L (1:1000) and anti-goat IgG (1:10,000)
T3 sequence (looked up): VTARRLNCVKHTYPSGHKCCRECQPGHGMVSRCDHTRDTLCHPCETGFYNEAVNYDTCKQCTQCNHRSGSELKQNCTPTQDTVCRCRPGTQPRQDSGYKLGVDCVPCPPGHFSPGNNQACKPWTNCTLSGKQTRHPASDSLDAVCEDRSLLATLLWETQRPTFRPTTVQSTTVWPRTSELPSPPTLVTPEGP

[4] = target: T2, recombinant mouse mCD40 protein (mouse); experiment: Octet biolayer interferometry, mCD40-his captured on the sensor
[5] = target: T1, recombinant mouse m4-1BB protein (mouse); experiment: Dual ELISA: capture anti-FLT3L (R&D AF427), detection with m41BB-His (Acro), tertiary anti-His/HRP (Abcam)
[6] = target: T1, recombinant mouse m4-1BB protein (mouse); experiment: ELISA, plate-bound recombinant mouse m4-1BB, detection with anti-m4-1BBL antibody and HRP
[7] = target: T4, recombinant mouse mFLT3 protein (mouse) (UniProt Q00342); experiment: ELISA, plate-bound recombinant mouse mFLT3, detection with anti-mFLT3L antibody and HRP
T4 sequence (looked up): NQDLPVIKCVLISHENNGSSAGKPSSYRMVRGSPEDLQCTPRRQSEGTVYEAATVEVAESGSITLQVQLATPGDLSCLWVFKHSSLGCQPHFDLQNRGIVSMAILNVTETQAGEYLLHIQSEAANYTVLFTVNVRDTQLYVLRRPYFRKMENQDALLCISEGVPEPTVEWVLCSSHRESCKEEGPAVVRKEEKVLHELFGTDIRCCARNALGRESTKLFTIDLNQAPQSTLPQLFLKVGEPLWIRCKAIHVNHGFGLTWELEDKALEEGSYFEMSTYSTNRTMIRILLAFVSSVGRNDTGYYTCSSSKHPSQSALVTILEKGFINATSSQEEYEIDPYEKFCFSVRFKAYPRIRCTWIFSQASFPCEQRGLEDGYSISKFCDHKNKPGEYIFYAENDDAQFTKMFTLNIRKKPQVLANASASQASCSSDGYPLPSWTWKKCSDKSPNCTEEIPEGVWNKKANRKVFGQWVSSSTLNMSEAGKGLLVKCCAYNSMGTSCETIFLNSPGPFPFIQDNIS

[8] = target: T4, recombinant mouse mFLT3 protein (mouse); experiment: ELISA, as printed here: plate-bound mFlt3 (2.5ug/ml), goat anti-mFlt3L (1:10,000), anti-Goat IgG-HRO (1:10,000)
[9] = target: T4, recombinant mouse mFLT3 protein (mouse); experiment: ELISA: plate-bound mFlt3 (10ug/ml), detection goat anti-mFlt3L (1:1000) and anti-goat IgG (10,000)
[10] = target: T4, recombinant mouse mFLT3 protein (mouse); experiment: Octet biolayer interferometry, mFLT3-his captured on the sensor
[11] = target: T2, recombinant mouse mCD40 protein (mouse); experiment: ELISA, plate-bound recombinant mouse mCD40, detection with anti-mCD40L antibody and HRP
[12] = target: T2, recombinant mouse mCD40 protein (mouse); experiment: Dual ELISA: capture anti-FLT3L (R&D AF427), detection with mCD40-His (Acro), tertiary anti-His/HRP (Abcam)
[13] = target: T5, recombinant mouse mGITR protein (mouse) (UniProt O35714); experiment: ELISA, plate-bound recombinant mouse mGITR, detection with anti-mGITRL antibody and HRP
T5 sequence (looked up): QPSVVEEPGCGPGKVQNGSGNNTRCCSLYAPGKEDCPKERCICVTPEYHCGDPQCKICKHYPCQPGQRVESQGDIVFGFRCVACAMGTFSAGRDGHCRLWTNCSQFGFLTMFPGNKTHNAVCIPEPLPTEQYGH

[14] = target: T5, recombinant mouse mGITR protein (mouse); experiment: ELISA: plate-bound mGITR (3.3ug/ml), detection anti-mGITRL (1:1000) and anti-Rat IgG (1:10,000)
[15] = target: T3, recombinant mouse mOX40 protein (mouse); experiment: ELISA, plate-bound recombinant mouse mOX40, detection with anti-mOX40L antibody and HRP
[16] = target: T3, recombinant mouse mOX40 protein (mouse); experiment: Dual ELISA: capture anti-FLT3L (R&D AF427), detection with mOX40-His (Acro), tertiary anti-His/HRP (Abcam)

Measured: binding

Standard(m41BBL) (from UniProt P41274) (ligand)
binds: [1]

Standard(mCD40L) (from UniProt P27548) (ligand)
binds: [2]

Standard(mOX40L) (from UniProt P43488) (ligand)
binds: [3]

mCD40L-Fc (Acro) (from UniProt P27548) (Fc fusion)
binds: [4]

mFLT3L-Fc-4-1BBL chimeric protein (from UniProt P49772 27-189; P01868 98-324; P41274 104-309) (Fc fusion)
binds: [5] | [6] | [7] | [8] | [1] | [9]

mFLT3L-Fc-CD40L chimeric protein (from UniProt P49772 27-189; P01868 98-324; P27548 47-260) (Fc fusion)
binds: [4] | [10] | [11] | [12] | [7] | [8] | [9] | [2]

mFLT3L-Fc-GITRL chimeric protein (from UniProt P49772 27-189; P01868 98-324; Q7TS55 42-173) (Fc fusion)
binds: [13] | [7] | [8] | [14] | [9]

mFLT3L-Fc-OX40L chimeric protein (from UniProt P49772 27-189; P01868 98-324; P43488 51-198) (Fc fusion)
binds: [15] | [7] | [8] | [3] | [9] | [16]
